# The other results are listed elsewhere or left out. Entries with a potency or affinity are not part of this list. Entries without a call are filed as inconclusive in the source.
# Experiment: Mouse fibroblast viability counterscreen for T. cruzi invasion hits, CellTiter-Glo, confirmatory (AID 2586)
# Conditions: NIH3T3 viability, ATP luminescence (CellTiter-Glo), 90 h; at 19.5 µM (top of the series)
smiles,measurement,value
CC1CCCN(C(=O)Cc2cn(Cc3cccc(Cl)c3)c3ccccc23)C1 (stereo unspecified),"activity change, negative = cytotoxic",9.1
